The text below walks through data of PMC5053705.

The chains behind the UniProt entries cited, without tags or fusion partners.
UniProt Q9NQB0: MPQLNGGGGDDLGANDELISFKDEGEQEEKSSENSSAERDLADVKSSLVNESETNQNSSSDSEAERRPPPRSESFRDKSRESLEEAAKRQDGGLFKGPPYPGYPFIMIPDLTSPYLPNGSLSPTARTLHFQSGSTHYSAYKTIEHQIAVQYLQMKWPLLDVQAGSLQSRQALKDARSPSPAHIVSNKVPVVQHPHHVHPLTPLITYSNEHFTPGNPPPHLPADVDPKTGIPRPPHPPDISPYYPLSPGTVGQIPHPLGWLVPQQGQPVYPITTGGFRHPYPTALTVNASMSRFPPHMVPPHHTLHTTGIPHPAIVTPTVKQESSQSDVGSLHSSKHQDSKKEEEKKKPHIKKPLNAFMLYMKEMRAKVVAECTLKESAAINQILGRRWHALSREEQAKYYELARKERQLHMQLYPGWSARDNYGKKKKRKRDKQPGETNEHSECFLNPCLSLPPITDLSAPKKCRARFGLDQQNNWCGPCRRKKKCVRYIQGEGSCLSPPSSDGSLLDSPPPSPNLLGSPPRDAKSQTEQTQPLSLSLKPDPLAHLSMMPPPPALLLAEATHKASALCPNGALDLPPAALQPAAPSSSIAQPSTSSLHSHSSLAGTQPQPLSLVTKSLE
UniProt P35222: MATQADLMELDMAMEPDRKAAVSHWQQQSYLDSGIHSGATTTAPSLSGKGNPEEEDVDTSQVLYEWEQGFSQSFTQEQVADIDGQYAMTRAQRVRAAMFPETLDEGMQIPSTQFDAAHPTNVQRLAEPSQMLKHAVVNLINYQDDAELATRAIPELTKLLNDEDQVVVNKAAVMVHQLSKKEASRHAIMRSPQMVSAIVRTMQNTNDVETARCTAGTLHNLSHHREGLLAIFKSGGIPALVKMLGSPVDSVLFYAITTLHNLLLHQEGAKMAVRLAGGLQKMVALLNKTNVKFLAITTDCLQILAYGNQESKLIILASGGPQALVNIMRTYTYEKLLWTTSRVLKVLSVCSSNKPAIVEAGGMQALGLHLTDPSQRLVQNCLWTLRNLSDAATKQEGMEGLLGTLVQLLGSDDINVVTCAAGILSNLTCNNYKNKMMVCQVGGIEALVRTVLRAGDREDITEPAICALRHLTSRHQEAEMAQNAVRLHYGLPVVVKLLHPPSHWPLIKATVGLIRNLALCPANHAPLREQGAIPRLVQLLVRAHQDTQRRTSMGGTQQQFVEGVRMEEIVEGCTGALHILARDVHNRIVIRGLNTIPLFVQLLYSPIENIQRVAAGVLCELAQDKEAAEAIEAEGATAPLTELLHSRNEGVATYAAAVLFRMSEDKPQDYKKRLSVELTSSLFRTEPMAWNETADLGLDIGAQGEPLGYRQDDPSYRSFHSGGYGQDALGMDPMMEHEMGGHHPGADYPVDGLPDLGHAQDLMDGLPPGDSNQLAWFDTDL
UniProt Q9BT81: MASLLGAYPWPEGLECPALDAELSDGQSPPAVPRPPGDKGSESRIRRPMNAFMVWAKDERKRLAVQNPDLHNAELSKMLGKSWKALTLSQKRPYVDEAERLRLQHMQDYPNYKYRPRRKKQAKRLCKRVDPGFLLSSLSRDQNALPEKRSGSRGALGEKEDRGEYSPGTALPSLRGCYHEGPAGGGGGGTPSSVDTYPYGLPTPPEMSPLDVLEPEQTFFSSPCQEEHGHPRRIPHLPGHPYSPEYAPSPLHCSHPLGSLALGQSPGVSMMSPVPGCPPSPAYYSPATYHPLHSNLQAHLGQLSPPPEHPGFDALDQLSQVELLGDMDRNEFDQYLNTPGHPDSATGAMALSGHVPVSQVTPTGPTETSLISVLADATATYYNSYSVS

For assay [1], the target named is Myc/TCF4 (UniProt Q9NQB0). The assay can be described thus: co-IP; HEK293 cells transiently co-transfected with HA/SOX7 and Myc/β-catenin or Myc/TCF4; Dynabeads co-immunoprecipitation kit; Western blot of lysate and eluate; IgG as control antibody. For orientation: A western blot detects proteins with antibodies after separation by electrophoresis.
For assay [2], the target named is Myc/β-catenin (UniProt P35222). The description is as above.

No constants are given. Whether binding was seen depends on the method and setting. In cells and extracts the contact can be indirect. Some entries that bind do so weakly or less than the wild type.

As to HA/SOX7 (from UniProt Q9BT81 1-388), the binding result in assay [1] and in assay [2] was “binds” throughout.
